Experimental data from PMC5068962.

Protein sequences, listed by entry. Tags and fused reporters are not part of them. Lines headed by an entry give the natural chain unless they say otherwise; changes in a name come on top.
UniProt Q9BL54: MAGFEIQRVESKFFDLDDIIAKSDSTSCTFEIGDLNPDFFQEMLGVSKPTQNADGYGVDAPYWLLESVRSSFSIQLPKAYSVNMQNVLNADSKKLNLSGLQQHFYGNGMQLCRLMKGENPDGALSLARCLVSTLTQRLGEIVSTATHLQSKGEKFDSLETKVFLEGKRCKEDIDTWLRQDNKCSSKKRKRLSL

T1: 6x(His)-PSF-1 (C. elegans) (UniProt Q22019)
T1 sequence: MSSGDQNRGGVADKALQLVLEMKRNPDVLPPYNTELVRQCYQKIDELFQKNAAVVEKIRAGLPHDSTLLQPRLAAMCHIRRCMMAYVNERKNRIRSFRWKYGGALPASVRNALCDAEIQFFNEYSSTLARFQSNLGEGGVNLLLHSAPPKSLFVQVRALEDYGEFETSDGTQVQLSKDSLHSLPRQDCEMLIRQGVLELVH


Legend:
[1] = biological target: T1, 6x(His)-PSF-1 (C. elegans); assay: pull-down; double tag affinity co-purification of four subunits co-expressed in E. coli BL21: soluble lysate on His-Trap HP (eluted with 300 mM imidazole), then Strep-Trap (eluted with 2.5 mM desthiobiotin); 0.15 M NaCl, 50 mM Hepes pH 6.8; Coomassie and immunoblot against Strep, 6xHis and PSF-3
[2] = biological target: Strep-SLD-5 (C. elegans); assay: as above

Row | binding [1] | binding [2] | Molecule
1 | binds | – | PSF-3 (recombinant, from pLP963) (from UniProt Q9BL54)
2 | – | binds | 6x(His)-PSF-1 (protein, UniProt Q22019 1-201) MSSGDQNRGGVADKALQLVLEMKRNPDVLPPYNTELVRQCYQKIDELFQKNAAVVEKIRAGLPHDSTLLQPRLAAMCHIRRCMMAYVNERKNRIRSFRWKYGGALPASVRNALCDAEIQFFNEYSSTLARFQSNLGEGGVNLLLHSAPPKSLFVQVRALEDYGEFETSDGTQVQLSKDSLHSLPRQDCEMLIRQGVLELVH

These are yes or no findings as the source states them, for the method shown. In cells and extracts the contact can be indirect. Binding calls can cover weak binding; strength is not graded here. Sequences can lack the tags named with a protein.
